Results published in PubChem BioAssay AID540276 (National Center for Advancing Translational Sciences (NCATS), 2011).
About 5,400 (1.8%) of roughly 300,000 compounds were called active. Inconclusive means that the source gave no clear call. Such entries were picked first, then a sample of the others. Calls follow the shape of the full dose curve; tested in HEK293 cells. Where the call is inconclusive, the potency comes from a doubtful curve fit.

Experiment: qHTS for inhibitors of binding or entry into cells for Marburg Virus
Conditions: Marburg virus pseudotyped entry inhibition, cell reporter; activity change, negative = inhibition: at 37.8 µM (top of the series) unless noted
% is scaled to controls: 0 for no effect and ±100 for the full control effect; potency is read from the fitted curve at half-maximal effect.

For `COc1ccc2c(c1)sc1ncc(C(=O)NCc3cccc(C)c3)c(=O)n12`, which “activity change, negative = inhibition” value is on record?
The value was inactive: 9.94% [at 46.1 µM].

With `O=C(N/N=C/c1ccccc1)c1cccc2ccccc12` as the molecule, how does the “activity change, negative = inhibition” value read?
Its value is inactive: 1.69% [at 46.1 µM].

With `CCN(C(=O)c1cn(CC(C)C)c(=O)c2cc(OC)c(OC)cc12)c1cc(OC)ccc1OC` as the molecule, how does the “activity change, negative = inhibition” value read?
Its value is inactive: -7.11% [at 46.1 µM].

Which “activity change, negative = inhibition” value does the source give for `CC(OC(=O)CCN=C1NS(=O)(=O)c2ccccc21)C(=O)N(C)C1CCCCC1` (configuration not stated) here?
The value was inactive: -0.814%.

For `CS(=O)(=O)Nc1nnc(C2CCCC2)s1`, which Potency is on record?
The Potency was inconclusive: 3.55 µM [activator, partial curve, poor fit].

Which Potency does the source give for `Cc1ccc(-c2nn(C)c(=O)c3ccccc23)cc1CNC(=O)c1ccccc1` here?
The Potency was inconclusive: 5.62 µM [inhibitor, single point].

For `Cc1ccccc1N1CCN(S(=O)(=O)c2ccc3ccccc3c2)CC1`, which Potency is on record?
The Potency was inconclusive: 17.8 µM [inhibitor, single point].

With `CC(C(=O)c1ccccc1)C(O)c1ccccn1` (configuration not stated) as the molecule, how does the Potency read?
Its Potency is inconclusive: 6.31 µM [activator, full curve, poor fit].

Which “activity change, negative = inhibition” value does the source give for `O=C1/C(=C/c2ccccc2)CCCc2ccccc21` here?
Its value is inactive: 21.6% [at 46.1 µM].

For `CCC(NC(=S)NCc1ccc(F)cc1)c1ccc(C)cc1` (configuration not stated), which Potency is on record?
The Potency was active: 10 µM.

Which Potency does the source give for `C/C(=N\Nc1nncc2ccccc12)c1ccc(O)cc1` here?
Its Potency is inconclusive: 8.91 µM [inhibitor, partial curve, poor fit].

Which “activity change, negative = inhibition” value does the source give for `CCC(CC)NC(=O)Cc1ccc(S(=O)(=O)N2CCOCC2)s1` here?
The value was inactive: 19.3%.

For `O=C1/C(=C\c2cc(Cl)c(O)c(Cl)c2)SC(=S)N1Cc1ccccc1`, which Potency is on record?
Its Potency is active: 6.31 µM.

For `Cc1cc2occ(CC(=O)N(CC(C)C)c3c(N)n(Cc4ccccc4)c(=O)[nH]c3=O)c2cc1C`, which “activity change, negative = inhibition” value is on record?
The value was inactive: -29.7% [at 46.1 µM].

Which Potency does the source give for `Fc1ccc2nc(Nc3nc4cc5c(cc4s3)OCCO5)sc2c1` here?
Its Potency is inconclusive: 35.5 µM [inhibitor, single point].

With `Cc1ccccc1Nc1c(-c2ccccc2)nc2cccc(C)n12` as the molecule, how does the Potency read?
The Potency was “inactive”.

With `O=C(Nc1cccc(Cl)c1)C1CCCN(c2ncnc3c2nc2n3CCCCC2)C1` (configuration not stated) as the molecule, how does the Potency read?
The Potency was inconclusive: 35.5 µM [inhibitor, partial curve, poor fit].

For `CN(CC(=O)NCCc1ccc(S(N)(=O)=O)cc1)CC(=O)Nc1ccccc1C(F)(F)F`, which Potency is on record?
The Potency was inconclusive: 0.708 µM [inhibitor, single point].

With `O=C(c1ccccc1Cl)N(C(=O)c1ccccc1Cl)c1nccc(-c2cccs2)n1` as the molecule, how does the Potency read?
The Potency was inconclusive: 16.4 µM [inhibitor, single point].

Which Potency does the source give for `CCOC(=O)c1ccc(NC(=O)Cn2ncc(Cl)c(Cl)c2=O)cc1` here?
The Potency was active: 3.16 µM.

Which Potency does the source give for `CC#CCN1C(=O)NC(c2ccccc2)C(C(=O)OC)=C1C` (configuration not stated) here?
Its Potency is inconclusive: 0.75 µM [inhibitor, single point].

With `Cc1ccc(SC2=C(N(C)C)C(=O)c3ccccc3C2=O)cc1` as the molecule, how does the Potency read?
Its Potency is inconclusive: 35.5 µM [inhibitor, single point].

With `Cc1ccc(C(=O)N/C(=C/c2cccs2)C(=O)NCCc2c[nH]c3ccccc23)cc1` as the molecule, how does the Potency read?
The Potency was inconclusive: 35.5 µM [inhibitor, single point].

Which Potency does the source give for `Cc1ccc(-n2cc(C(=O)c3cc(Cl)ccc3O)cc(C#N)c2=O)cc1` here?
Its Potency is inconclusive: 11.2 µM [inhibitor, partial curve, poor fit].

Which “activity change, negative = inhibition” value does the source give for `CSc1cccc(NC(=O)c2ccco2)c1` here?
The value was inactive: 12.2%.

With `CC1(C)CC(=O)C2=C(C1)Nc1ccccc1NC2c1ccc(F)cc1` (configuration not stated) as the molecule, how does the “activity change, negative = inhibition” value read?
The value was inactive: -16.8% [at 46.1 µM].

For `O=C(CSc1nnc(-c2ccccc2)c(-c2ccccc2)n1)Nc1ccc(Br)cn1`, which Potency is on record?
Its Potency is inconclusive: 0.501 µM [inhibitor, full curve, poor fit].

For `CCNC(=S)NNC(=O)c1cc(-c2ccc(OC)cc2)nc2ccccc12`, which Potency is on record?
The Potency was active: 0.651 µM.

For `COc1ccc(CCN2C(=O)/C(=C\c3ccco3)SC2=S)cc1OC`, which “activity change, negative = inhibition” value is on record?
Its value is inactive: -2.75%.

For `CCOC(=O)c1ccc(NC(=S)N(CCN2CCCCCC2)Cc2ccco2)cc1`, which Potency is on record?
The Potency was inconclusive: 10 µM [inhibitor, partial curve, poor fit].

For `N[C@@H](CC(=O)O)C(=O)O`, which activity change, negative = inhibition is on record?
The activity change, negative = inhibition was inconclusive: -38.8% [inhibitor].

With `O=c1c2ccccc2cnn1-c1ccc(Cl)cc1` as the molecule, how does the Potency read?
The Potency was inconclusive: 5.62 µM [activator, single point].

Which Potency does the source give for `CCN=C1S/C(=C\c2ccc(N3CCOCC3)cc2C)C(=O)N1CC` here?
The Potency was inconclusive: 6.31 µM [inhibitor, single point].

With `CCc1nc(C)cn1S(=O)(=O)c1ccc(Cl)c(Cl)c1OC` as the molecule, how does the Potency read?
Its Potency is inconclusive: 1.12 µM [inhibitor, full curve, poor fit].

For `O=C(Nc1ccccc1)c1ccc(S(=O)(=O)NCc2cccnc2)cc1`, which Potency is on record?
Its Potency is inconclusive: 35.5 µM [inhibitor, single point].

Which Potency does the source give for `COC(=O)c1ccc(NC(=O)c2ccccc2NS(=O)(=O)c2ccccc2)cc1` here?
The Potency was inconclusive: 16.4 µM [inhibitor, single point].

With `Cc1cc(C(=O)CSc2nnc(-c3ccc(F)cc3)o2)c(C)n1CC1COc2ccccc2O1` (configuration not stated) as the molecule, how does the “activity change, negative = inhibition” value read?
The value was inactive: -10.4%.

With `CSc1nc(N)nc(SCCS(=O)(=O)c2ccc(Cl)cc2)c1C#N` as the molecule, how does the Potency read?
Its Potency is inconclusive: 29.1 µM [inhibitor, single point].

With `Cc1oc(-c2cc3c(cc2Cl)OCO3)nc1CN1CCCC(C(=O)N2CCOCC2)C1` (configuration not stated) as the molecule, how does the “activity change, negative = inhibition” value read?
Its value is inactive: 15.1% [at 46.1 µM].

For `COc1cccc2c1C1(O)C2CCCCCCCCCC12OCCCO2` (configuration not stated), which Potency is on record?
The Potency was inconclusive: 35.5 µM [inhibitor, partial curve, poor fit].

Which Potency does the source give for `CCOC(=O)c1c(C)c(-c2ccccc2)n(CC(=O)NCCc2cccc(C)c2)c1C` here?
Its Potency is inconclusive: 1.26 µM [inhibitor, partial curve, poor fit].

Which “activity change, negative = inhibition” value does the source give for `Cc1ccccc1C(=O)NCC(=O)NNC(=O)CCN1CCN(c2ccccc2)CC1` here?
The value was inactive: 2.95%.

Which “activity change, negative = inhibition” value does the source give for `C/C(=C\C[Si](C)(C)C)CCC=O` here?
Its value is inactive: -25.1% [at 14.2 µM].

Which Potency does the source give for `COc1ccccc1OCCN1CSC(=S)N(C)C1` here?
Its Potency is inconclusive: 31.6 µM [inhibitor, single point].

With `COc1ccccc1N(C(=O)c1snc(C(N)=O)c1N)C(C(=O)NC1CCCC1)c1ccco1` (configuration not stated) as the molecule, how does the Potency read?
The Potency was inconclusive: 29.1 µM [inhibitor, single point].

With `O=C(CSc1ncnc2c1cnn2-c1ccccc1)NCC1CCCO1` (configuration not stated) as the molecule, how does the Potency read?
The Potency was inconclusive: 22.4 µM [inhibitor, partial curve, poor fit].

Which Potency does the source give for `COc1ccccc1N1CCN(C(=O)CNS(=O)(=O)c2ccc(Br)s2)CC1` here?
Its Potency is inconclusive: 14.1 µM [inhibitor, single point].

With `COc1cc(CNCCCN2CCOCC2)cc(Cl)c1OCC(=O)NC(C)(C)C` as the molecule, how does the Potency read?
Its Potency is inconclusive: 11.2 µM [inhibitor, single point].

For `c1cncc(CN=C2Nc3ccccc3CS2)c1`, which “activity change, negative = inhibition” value is on record?
The value was inactive: 23.9% [at 46.1 µM].

With `COc1ccc2sc(N(CCCN(C)C)C(=O)c3ccc(S(=O)(=O)N4CCCC4)cc3)nc2c1` as the molecule, how does the “activity change, negative = inhibition” value read?
Its value is inactive: 21.7%.

Which Potency does the source give for `COc1cc(NC(=S)N2CCN(S(=O)(=O)c3ccc(C)cc3)CC2)cc(OC)c1` here?
Its Potency is inconclusive: 0.199 µM [activator, partial curve, poor fit].

With `COCCCNc1nc(SCc2ccccc2)nc2sc3c(c12)CCC3` as the molecule, how does the “activity change, negative = inhibition” value read?
The value was inactive: -2.08%.

Which Potency does the source give for `CCn1ncc(/C=C/C(=O)NCc2cnn(C)c2C)c1C` here?
Its Potency is inconclusive: 29.1 µM [activator, partial curve, poor fit].

Which Potency does the source give for `CN(C)S(=O)(=O)c1cccc(NC(=O)c2ccc(N3CCOCC3)c([N+](=O)[O-])c2)c1` here?
Its Potency is inconclusive: 35.5 µM [inhibitor, partial curve, poor fit].

For `CCc1ccc(Nc2ncnc3nc[nH]c23)cc1`, which Potency is on record?
Its Potency is inconclusive: 0.562 µM [activator, full curve, poor fit].

With `O=S(=O)(Nc1ccc(-c2ccc(NS(=O)(=O)c3ccccc3)cc2)cc1)c1ccccc1` as the molecule, how does the “activity change, negative = inhibition” value read?
Its value is inactive: -2.65% [at 46.1 µM].

Which Potency does the source give for `COc1ccccc1NS(=O)(=O)c1ccc(NC(=O)Cc2cccs2)cc1` here?
Its Potency is inconclusive: 0.562 µM [activator, full curve, poor fit].

Which Potency does the source give for `CCc1nnc2c(Nc3ccccc3Br)nc3ccccc3n12` here?
The Potency was inconclusive: 2.82 µM [inhibitor, single point].

Which Potency does the source give for `Cc1c(Cl)cnc(NC(=O)COC(=O)Cc2coc3ccc4ccccc4c23)c1Cl` here?
Its Potency is inconclusive: 0.891 µM [inhibitor, single point].

For `Cc1ccc(Nc2nc(C)cc(C)c2C(N)=O)cc1`, which Potency is on record?
The Potency was inconclusive: 6.31 µM [activator, single point].

With `CCN(CC)CCP(=O)(c1ccccc1)c1ccccc1` as the molecule, how does the “activity change, negative = inhibition” value read?
Its value is inactive: 11.8%.

Which Potency does the source give for `N#Cc1c(-c2ccccc2)cc2nc3ccccc3n2c1N` here?
Its Potency is inconclusive: 2.24 µM [activator, full curve, poor fit].

Which Potency does the source give for `Cc1ccc(-c2nn(C)c(=O)c3ccccc23)cc1CN1CCOCC1` here?
Its Potency is “inactive”.

Which “activity change, negative = inhibition” value does the source give for `CN1CCc2c(sc3c2C(=O)NC(c2ccc4c(c2)OCO4)N3)C1` (configuration not stated) here?
Its value is inactive: 15%.

For `O=C1NC(=S)N/C1=C/c1cccc2ccccc12`, which “activity change, negative = inhibition” value is on record?
The value was inactive: -0.42%.

For `Cc1ccc(OCC(=O)Nc2ccc3nn(-c4ccc(C)cc4)nc3c2)cc1`, which Potency is on record?
Its Potency is inconclusive: 3.55 µM [activator, single point].

For `Cc1ccc(NC(=O)CCN2CC(C)OC(C)C2)cc1` (configuration not stated), which Potency is on record?
Its Potency is inconclusive: 5.62 µM [activator, partial curve].

For `Cc1ccc(CSc2nncn2-c2ccccn2)cc1`, which Potency is on record?
The Potency was inconclusive: 35.5 µM [activator, single point].

Which “activity change, negative = inhibition” value does the source give for `Cn1c(CCNC(=O)c2ccco2)nc2cc(NC(=O)c3ccco3)ccc21` here?
Its value is inactive: 14%.

With `CC(C)CCn1c(CN2CCN(Cc3ccccc3)CC2)nc2c1c(=O)n(C)c(=O)n2C` as the molecule, how does the Potency read?
Its Potency is inconclusive: 1.46 µM [inhibitor, full curve, poor fit].

Which Potency does the source give for `CC(C)(C)Nc1nc(Cl)nc(NCc2ccccc2)n1` here?
Its Potency is inconclusive: 12.6 µM [inhibitor, partial curve, poor fit].

For `Cc1ccc(-n2cnc3sc(C)c(C)c3c2=O)cc1`, which Potency is on record?
Its Potency is inconclusive: 20 µM [activator, partial curve, poor fit].
